Patent US20260259169A1, “BETA-LACTAMASE SUBSTRATE COMPOUNDS AND ELECTROCHEMICAL DETECTION METHODS USING THEM” (priority 2023, published 2026)

Test system: beta-lactamases
Assay: Cyclic voltammetry in the presence and absence of beta-lactamases
Type: biochemical
Settings: 1 entire voltage cycle; signal only in positive samples

Structure (SMILES): CC(C)(ON=C(C(=O)N[C@@H]1C(=O)N2C(C(=O)O)=C(C=Cc3ccc([N+](=O)[O-])cc3[N+](=O)[O-])CS[C@H]12)c1csc(N)n1)C(=O)O.O=C(O)C(F)(F)F [HMRZ-86, reference compound]
- potential of the oxidation signal specific for the presence of beta-lactamases: +0.3 V vs. Ag/AgCl
